Results as given in publication PMC11265163.
These are yes or no findings as the source states them, for the method shown. Binding seen in cells or lysates may run through a third protein. Binding can be weak; no strength is given.

Sequences of proteins named here, by UniProt entry; tags and fusion partners are left off. A change or cut given only in a name is not applied to a line headed by its entry.
UniProt Q9UKK3: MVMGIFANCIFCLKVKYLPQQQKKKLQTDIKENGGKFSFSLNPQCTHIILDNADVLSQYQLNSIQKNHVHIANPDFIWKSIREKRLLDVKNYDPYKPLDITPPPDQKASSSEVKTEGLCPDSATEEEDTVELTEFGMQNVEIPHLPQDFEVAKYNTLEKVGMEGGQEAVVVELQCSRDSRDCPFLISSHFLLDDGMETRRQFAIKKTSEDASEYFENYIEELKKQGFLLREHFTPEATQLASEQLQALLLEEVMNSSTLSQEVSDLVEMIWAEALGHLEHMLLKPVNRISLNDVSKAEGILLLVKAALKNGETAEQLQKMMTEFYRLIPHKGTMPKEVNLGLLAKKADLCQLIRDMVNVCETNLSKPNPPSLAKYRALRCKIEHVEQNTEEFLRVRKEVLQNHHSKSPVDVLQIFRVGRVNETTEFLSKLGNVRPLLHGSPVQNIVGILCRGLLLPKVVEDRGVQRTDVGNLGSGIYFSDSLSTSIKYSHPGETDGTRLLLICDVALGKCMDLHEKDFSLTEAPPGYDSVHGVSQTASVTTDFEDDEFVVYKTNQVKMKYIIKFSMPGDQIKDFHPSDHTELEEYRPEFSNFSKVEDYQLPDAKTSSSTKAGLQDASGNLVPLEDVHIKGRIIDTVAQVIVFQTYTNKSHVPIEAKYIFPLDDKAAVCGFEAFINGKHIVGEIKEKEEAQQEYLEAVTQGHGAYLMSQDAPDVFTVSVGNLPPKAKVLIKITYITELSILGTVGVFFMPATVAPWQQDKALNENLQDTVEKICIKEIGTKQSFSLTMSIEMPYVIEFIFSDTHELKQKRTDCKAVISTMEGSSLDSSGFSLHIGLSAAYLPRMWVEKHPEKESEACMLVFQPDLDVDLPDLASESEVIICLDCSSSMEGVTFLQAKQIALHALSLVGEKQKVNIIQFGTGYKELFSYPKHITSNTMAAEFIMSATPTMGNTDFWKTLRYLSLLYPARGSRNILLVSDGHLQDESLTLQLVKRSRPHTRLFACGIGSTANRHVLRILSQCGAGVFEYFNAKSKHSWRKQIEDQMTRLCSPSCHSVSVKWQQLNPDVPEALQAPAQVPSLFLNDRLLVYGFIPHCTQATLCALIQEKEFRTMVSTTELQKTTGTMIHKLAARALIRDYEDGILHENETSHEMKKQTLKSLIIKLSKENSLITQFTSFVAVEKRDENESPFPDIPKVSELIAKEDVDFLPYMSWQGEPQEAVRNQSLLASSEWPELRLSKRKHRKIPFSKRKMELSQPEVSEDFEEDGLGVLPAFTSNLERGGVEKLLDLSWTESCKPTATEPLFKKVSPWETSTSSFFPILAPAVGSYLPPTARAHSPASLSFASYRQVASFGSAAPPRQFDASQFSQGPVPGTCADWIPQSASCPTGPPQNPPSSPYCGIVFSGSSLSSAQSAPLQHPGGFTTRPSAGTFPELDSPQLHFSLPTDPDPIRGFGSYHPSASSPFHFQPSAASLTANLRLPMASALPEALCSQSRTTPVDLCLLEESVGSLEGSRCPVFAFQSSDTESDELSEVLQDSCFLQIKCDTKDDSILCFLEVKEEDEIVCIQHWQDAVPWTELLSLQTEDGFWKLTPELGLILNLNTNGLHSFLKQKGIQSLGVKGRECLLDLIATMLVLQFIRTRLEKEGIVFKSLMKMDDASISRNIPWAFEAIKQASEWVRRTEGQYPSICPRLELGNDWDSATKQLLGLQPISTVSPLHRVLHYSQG

Columns and labels:
Assay in all cases: co-IP; FLAG immunoprecipitation of exogenously introduced FLAG-tagged PARP4 fragments or domain-deletion mutants from HEK293T cells; endogenous hnRNPM detected
[1] = target: PARP4 with deletion of the VWFA domain (UniProt Q9UKK3)
[2] = target: PARP4 with deletion of the VIT domain (UniProt Q9UKK3)
[3] = target: PARP4 with deletion of the MVP interaction domain (UniProt Q9UKK3)

Measured: binding

B1: heterogeneous ribonucleoprotein M (hnRNPM) (protein, UniProt P52272 1-730)
chain: MAAGVEAAAEVAATEIKMEEESGAPGVPSGNGAPGPKGEGERPAQNEKRKEKNIKRGGNRFEPYANPTKRYRAFITNIPFDVKWQSLKDLVKEKVGEVTYVELLMDAEGKSRGCAVVEFKMEESMKKAAEVLNKHSLSGRPLKVKEDPDGEHARRAMQKVMATTGGMGMGPGGPGMITIPPSILNNPNIPNEIIHALQAGRLGSTVFVANLDYKVGWKKLKEVFSMAGVVVRADILEDKDGKSRGIGTVTFEQSIEAVQAISMFNGQLLFDRPMHVKMDERALPKGDFFPPERPQQLPHGLGGIGMGLGPGGQPIDANHLNKGIGMGNIGPAGMGMEGIGFGINKMGGMEGPFGGGMENMGRFGSGMNMGRINEILSNALKRGEIIAKQGGGGGGGSVPGIERMGPGIDRLGGAGMERMGAGLGHGMDRVGSEIERMGLVMDRMGSVERMGSGIERMGPLGLDHMASSIERMGQTMERIGSGVERMGAGMGFGLERMAAPIDRVGQTIERMGSGVERMGPAIERMGLSMERMVPAGMGAGLERMGPVMDRMATGLERMGANNLERMGLERMGANSLERMGLERMGANSLERMGPAMGPALGAGIERMGLAMGGGGGASFDRAIEMERGNFGGSFAGSFGGAGGHAPGVARKACQIFVRNLPFDFTWKMLKDKFNECGHVLYADIKMENGKSKGCGVVKFESPEVAERACRMMNGMKLSGREIDVRIDRNA
binds: [1] | [2] | [3]
